This is an account of results in the supplement of paper PMC12067093, “Discovery and optimisation of a covalent ligand for TRIM25 and its application to targeted protein ubiquitination” (Chemical Science, 2025).

Protein sequences, listed by entry. Tags and fused reporters are not part of them. Lines headed by an entry give the natural chain unless they say otherwise; changes in a name come on top.
UniProt Q6UXN9, whole entry, looked up: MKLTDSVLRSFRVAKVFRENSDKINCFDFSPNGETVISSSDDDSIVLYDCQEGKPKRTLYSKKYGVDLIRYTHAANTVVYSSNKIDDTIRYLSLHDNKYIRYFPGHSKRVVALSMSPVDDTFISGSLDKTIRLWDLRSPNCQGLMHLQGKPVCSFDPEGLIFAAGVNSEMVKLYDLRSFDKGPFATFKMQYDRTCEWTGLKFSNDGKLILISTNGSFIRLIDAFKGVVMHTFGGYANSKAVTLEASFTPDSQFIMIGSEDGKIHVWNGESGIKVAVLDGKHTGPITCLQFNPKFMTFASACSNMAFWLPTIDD
UniProt Q9UNX4: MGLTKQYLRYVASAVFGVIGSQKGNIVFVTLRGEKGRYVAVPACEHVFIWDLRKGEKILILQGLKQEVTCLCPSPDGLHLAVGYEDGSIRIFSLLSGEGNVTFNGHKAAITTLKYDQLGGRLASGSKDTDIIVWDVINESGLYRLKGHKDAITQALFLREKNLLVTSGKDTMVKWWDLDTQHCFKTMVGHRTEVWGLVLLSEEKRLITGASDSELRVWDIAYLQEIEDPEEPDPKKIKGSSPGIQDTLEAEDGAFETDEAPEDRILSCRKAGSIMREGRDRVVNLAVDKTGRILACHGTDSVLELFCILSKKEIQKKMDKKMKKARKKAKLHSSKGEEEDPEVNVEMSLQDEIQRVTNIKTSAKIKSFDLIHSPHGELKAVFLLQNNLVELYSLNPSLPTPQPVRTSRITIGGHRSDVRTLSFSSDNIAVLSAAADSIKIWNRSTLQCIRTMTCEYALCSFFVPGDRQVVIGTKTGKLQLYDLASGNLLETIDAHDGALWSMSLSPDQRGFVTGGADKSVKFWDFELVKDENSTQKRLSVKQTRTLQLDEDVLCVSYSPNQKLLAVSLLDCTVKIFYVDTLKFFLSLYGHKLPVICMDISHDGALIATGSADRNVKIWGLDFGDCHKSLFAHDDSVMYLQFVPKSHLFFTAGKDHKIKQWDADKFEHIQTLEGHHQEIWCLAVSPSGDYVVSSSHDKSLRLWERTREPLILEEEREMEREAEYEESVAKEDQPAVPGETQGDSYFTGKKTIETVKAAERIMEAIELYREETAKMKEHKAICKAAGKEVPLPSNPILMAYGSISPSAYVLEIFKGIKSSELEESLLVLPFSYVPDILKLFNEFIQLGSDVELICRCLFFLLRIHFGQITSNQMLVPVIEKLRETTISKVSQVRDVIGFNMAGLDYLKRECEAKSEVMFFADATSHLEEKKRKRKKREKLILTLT
UniProt P98170, whole entry, looked up: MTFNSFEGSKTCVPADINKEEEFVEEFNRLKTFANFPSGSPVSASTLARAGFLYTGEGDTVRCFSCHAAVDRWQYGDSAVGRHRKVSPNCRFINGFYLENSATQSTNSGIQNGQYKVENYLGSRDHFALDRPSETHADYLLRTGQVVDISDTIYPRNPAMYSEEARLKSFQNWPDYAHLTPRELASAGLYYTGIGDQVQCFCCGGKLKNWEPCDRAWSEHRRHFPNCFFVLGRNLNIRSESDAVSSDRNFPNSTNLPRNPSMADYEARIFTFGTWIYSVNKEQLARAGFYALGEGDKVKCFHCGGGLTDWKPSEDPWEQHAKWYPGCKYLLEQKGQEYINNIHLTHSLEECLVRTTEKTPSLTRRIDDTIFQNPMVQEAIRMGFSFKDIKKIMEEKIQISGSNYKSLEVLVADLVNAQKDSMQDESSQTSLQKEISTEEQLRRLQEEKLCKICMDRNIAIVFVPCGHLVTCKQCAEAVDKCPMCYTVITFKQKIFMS
UniProt Q9NQW7: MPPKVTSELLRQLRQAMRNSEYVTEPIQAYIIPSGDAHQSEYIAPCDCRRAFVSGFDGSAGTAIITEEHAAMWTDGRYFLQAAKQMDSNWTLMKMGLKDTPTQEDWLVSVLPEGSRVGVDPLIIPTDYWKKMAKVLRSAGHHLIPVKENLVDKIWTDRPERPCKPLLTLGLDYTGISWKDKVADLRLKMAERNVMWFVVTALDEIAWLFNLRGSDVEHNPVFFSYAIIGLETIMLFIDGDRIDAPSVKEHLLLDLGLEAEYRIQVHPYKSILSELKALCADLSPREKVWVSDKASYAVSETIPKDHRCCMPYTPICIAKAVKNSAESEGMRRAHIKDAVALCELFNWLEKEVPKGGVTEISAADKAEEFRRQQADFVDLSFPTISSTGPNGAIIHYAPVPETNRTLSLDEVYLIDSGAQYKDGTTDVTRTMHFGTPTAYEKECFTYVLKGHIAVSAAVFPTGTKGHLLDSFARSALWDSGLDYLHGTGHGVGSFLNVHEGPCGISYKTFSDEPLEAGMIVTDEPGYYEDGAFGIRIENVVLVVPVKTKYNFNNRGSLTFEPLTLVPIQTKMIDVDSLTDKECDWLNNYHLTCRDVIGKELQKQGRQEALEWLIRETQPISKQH
UniProt Q8NI36: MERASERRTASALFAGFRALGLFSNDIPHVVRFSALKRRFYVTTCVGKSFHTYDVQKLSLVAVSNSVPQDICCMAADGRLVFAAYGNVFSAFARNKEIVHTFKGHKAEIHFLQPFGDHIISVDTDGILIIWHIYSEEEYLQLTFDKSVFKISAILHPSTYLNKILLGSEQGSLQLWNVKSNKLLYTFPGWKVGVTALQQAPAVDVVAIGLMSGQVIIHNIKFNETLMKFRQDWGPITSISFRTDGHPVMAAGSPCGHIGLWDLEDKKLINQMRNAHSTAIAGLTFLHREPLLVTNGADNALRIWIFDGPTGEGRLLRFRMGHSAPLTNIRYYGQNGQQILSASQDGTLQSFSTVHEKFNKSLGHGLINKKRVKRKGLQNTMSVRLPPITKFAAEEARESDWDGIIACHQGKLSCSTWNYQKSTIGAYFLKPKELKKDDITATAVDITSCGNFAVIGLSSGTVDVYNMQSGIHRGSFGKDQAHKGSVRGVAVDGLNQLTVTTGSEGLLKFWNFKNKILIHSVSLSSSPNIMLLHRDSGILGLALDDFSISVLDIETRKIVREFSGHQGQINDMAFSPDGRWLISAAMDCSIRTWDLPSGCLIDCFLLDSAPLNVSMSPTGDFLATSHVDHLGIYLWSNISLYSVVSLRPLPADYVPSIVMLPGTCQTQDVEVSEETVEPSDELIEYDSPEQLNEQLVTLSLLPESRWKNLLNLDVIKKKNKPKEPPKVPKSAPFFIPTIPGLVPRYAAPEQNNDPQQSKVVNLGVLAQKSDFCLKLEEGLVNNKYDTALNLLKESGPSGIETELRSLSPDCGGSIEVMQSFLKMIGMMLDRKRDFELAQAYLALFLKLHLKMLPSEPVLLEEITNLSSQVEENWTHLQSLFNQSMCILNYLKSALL
UniProt Q6PJI9: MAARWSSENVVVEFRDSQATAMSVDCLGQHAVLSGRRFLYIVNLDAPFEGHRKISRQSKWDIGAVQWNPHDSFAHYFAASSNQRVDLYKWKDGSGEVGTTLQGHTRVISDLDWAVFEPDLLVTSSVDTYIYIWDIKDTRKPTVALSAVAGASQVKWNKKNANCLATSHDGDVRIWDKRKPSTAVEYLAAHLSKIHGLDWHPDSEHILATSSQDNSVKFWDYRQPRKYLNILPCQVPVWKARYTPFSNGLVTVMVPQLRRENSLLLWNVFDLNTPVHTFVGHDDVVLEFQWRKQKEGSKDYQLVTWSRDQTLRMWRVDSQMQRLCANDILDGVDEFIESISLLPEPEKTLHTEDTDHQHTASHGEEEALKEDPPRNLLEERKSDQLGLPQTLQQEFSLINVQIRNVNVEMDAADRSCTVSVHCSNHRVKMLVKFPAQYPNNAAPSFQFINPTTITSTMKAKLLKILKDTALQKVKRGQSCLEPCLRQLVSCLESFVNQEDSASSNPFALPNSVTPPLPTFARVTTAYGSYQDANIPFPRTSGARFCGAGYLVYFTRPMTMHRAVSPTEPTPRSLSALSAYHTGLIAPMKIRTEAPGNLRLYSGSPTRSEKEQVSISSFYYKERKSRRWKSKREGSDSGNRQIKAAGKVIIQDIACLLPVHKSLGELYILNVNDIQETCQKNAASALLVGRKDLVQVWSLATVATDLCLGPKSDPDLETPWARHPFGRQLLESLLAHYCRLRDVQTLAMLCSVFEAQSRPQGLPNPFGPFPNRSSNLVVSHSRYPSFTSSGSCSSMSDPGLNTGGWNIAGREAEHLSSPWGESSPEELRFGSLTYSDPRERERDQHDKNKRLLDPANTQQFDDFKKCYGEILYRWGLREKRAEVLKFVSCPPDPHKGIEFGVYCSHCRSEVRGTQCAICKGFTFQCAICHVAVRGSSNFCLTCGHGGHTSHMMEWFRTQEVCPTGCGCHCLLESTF
UniProt A4D1P6: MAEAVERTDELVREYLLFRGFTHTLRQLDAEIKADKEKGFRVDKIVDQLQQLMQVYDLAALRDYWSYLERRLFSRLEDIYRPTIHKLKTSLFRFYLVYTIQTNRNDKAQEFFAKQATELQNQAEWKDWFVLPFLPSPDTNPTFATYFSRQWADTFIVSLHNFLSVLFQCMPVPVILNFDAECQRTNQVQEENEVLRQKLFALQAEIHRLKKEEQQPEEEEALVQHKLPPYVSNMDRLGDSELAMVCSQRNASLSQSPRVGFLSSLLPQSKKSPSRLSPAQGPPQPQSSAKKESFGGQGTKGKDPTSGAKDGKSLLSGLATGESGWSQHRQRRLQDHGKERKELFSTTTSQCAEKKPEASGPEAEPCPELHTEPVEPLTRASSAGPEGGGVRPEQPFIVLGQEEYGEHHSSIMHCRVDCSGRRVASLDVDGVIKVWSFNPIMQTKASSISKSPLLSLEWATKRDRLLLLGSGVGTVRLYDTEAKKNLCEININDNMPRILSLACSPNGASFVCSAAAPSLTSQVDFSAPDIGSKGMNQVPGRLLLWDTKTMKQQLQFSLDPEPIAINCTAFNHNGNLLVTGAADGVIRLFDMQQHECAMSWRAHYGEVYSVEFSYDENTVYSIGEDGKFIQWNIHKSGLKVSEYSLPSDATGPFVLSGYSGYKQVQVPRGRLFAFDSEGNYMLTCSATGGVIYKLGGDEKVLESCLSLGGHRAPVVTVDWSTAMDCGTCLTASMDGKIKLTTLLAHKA
UniProt Q01831: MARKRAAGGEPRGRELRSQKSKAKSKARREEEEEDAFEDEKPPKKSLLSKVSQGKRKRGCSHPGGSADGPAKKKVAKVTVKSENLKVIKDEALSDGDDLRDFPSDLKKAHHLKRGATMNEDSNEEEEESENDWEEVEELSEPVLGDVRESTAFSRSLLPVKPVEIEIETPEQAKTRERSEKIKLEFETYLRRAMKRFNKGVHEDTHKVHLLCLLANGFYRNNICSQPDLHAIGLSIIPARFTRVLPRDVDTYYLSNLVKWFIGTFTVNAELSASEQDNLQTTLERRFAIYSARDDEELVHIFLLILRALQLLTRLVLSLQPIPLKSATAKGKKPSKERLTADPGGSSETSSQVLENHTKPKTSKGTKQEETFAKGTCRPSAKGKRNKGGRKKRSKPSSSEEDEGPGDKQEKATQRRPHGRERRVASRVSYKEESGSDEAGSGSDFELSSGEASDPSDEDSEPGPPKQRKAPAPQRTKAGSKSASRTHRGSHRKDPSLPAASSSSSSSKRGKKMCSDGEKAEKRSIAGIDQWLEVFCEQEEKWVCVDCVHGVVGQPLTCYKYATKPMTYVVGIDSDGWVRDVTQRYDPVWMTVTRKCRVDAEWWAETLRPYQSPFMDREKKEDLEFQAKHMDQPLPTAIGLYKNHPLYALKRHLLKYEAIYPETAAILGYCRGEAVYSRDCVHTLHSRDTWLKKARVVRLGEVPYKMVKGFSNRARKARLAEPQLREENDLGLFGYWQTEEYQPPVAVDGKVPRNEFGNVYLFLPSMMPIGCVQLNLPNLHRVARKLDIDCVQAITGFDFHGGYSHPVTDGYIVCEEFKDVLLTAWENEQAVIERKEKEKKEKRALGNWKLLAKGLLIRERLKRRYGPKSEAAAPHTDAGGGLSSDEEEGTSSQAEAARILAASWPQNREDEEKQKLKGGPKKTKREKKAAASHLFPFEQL
UniProt Q9BQA1, whole entry, looked up: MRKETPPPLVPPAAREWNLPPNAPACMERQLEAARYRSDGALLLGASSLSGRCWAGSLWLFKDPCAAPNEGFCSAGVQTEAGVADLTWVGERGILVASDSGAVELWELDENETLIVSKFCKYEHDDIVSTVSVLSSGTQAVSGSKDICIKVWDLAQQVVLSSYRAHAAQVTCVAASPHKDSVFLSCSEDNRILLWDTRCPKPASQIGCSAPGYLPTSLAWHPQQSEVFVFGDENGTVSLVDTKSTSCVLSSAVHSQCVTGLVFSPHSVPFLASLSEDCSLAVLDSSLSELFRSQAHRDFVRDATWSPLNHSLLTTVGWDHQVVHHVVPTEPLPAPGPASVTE

Compound in the test: Cc1cc(ccc1-c1ccccc1)C(=O)N1CCCN(CC1)C(=O)CCl [compound 10]
The test can be described thus: probe-labelled cysteine peptide fold change vs DMSO (competition) (log2 fold change); higher = less target engagement (more negative = stronger competition). Conditions: THP-1, incubation time: 4 h.

This is one part of the list.
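Further: competitive profiling in live THP-1 cells: cysteine peptides tagged with an iodoacetamide desthiobiotin (IA-DTB) probe, intensity after compound treatment relative to DMSO-treated cells.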

Consider “WDR82_Q6UXN9_195_TCEWTGLK (UniProt Q6UXN9)”, for which the “probe-labelled cysteine peptide fold change” value by setting is: (10 µM) -0.0459; (50 µM) 0.418.

In the case of “WDR3_Q9UNX4_448_STLQCIR (UniProt Q9UNX4)”, the “probe-labelled cysteine peptide fold change” value by setting is: (10 µM) 0.178; (50 µM) 0.222.

With “WDR37_Q9Y2I8_329+330_TANLYDVETSELVHSLTGHDQELTHCCTHPTQR (UniProt Q9Y2I8)”, the “probe-labelled cysteine peptide fold change” value (10 µM) was -0.208 and the “probe-labelled cysteine peptide fold change” value (50 µM) is -0.203.

As for “WDR76_Q9H967_562_QEDCVIVGSMAHPR (UniProt Q9H967)”, the “probe-labelled cysteine peptide fold change” value is -0.0209 (10 µM) and 0.371 (50 µM).

“WDR26_Q9H7D7_577_KYQGVTQGFYTIHSCFGGHNEDFIASGSEDHK (UniProt Q9H7D7)”: the “probe-labelled cysteine peptide fold change” value is, setting by setting: (10 µM) 0.305; (50 µM) 0.234.

In the case of “WDR26_Q9H7D7_259_IHVLSGYLMCSHAEDLR (UniProt Q9H7D7)”, the “probe-labelled cysteine peptide fold change” value (10 µM) was 0.0545 and the “probe-labelled cysteine peptide fold change” value (50 µM) was -0.000885.

Turning to “XIAP_P98170_213_NWEPCDR (UniProt P98170)”, the “probe-labelled cysteine peptide fold change” value (10 µM) was -0.0911 and the “probe-labelled cysteine peptide fold change” value (50 µM) is -0.654.

Consider “WDR3_Q9UNX4_70_QEVTCLCPSPDGLHLAVGYEDGSIR (UniProt Q9UNX4)”, for which the “probe-labelled cysteine peptide fold change” value runs as follows: (10 µM) -0.0576; (50 µM) 0.153.

On to “XPO1_O14980_498_NLNTLCWAIGSISGAMHEEDEKR (UniProt O14980)”, for which the “probe-labelled cysteine peptide fold change” value by setting is: (10 µM) -0.0055; (50 µM) -0.265.

Regarding “XPNPEP1_Q9NQW7_279_ALCADLSPR (UniProt Q9NQW7)”, the “probe-labelled cysteine peptide fold change” value reads like this: (10 µM) 0.19; (50 µM) 0.0511.

As for “WRNIP1_Q96S55_39_CLLLHPAGHAEPAAGSHR (UniProt Q96S55)”, the “probe-labelled cysteine peptide fold change” value (10 µM) was 0.0993 and the “probe-labelled cysteine peptide fold change” value (50 µM) was 0.3.

For the target “WDFY4_Q6ZS81_878_QVMCEAGLLGTLMASCHR (UniProt Q6ZS81)”, the “probe-labelled cysteine peptide fold change” value by setting is: (10 µM) 0.0987; (50 µM) -0.0126.

In the case of “WSB1_Q9Y6I7_66_LVPWSQCLQNFLLHGTK (UniProt Q9Y6I7)”, the “probe-labelled cysteine peptide fold change” value reads like this: (10 µM) -0.2; (50 µM) 0.148.

“WDR36_Q8NI36_866_SLSPDCGGSIEVMQSFLK (UniProt Q8NI36)”: the “probe-labelled cysteine peptide fold change” value was 0.0135 (10 µM) and 0.474 (50 µM).

Consider “WDR81_Q562E7_76_RLPLGPCPR (UniProt Q562E7)”, for which the “probe-labelled cysteine peptide fold change” value runs as follows: (10 µM) -0.00872; (50 µM) 0.132.

With “WDR11_Q9BZH6_1000_KCTDQLLLLGQTDR (UniProt Q9BZH6)”, the “probe-labelled cysteine peptide fold change” value is, setting by setting: (10 µM) -0.0686; (50 µM) -0.0351.

“WDR59_Q6PJI9_233_YLNILPCQVPVWK (UniProt Q6PJI9)”: the “probe-labelled cysteine peptide fold change” value runs as follows: (10 µM) 0.199; (50 µM) 0.28.

Turning to “WDR70_Q9NW82_338_KVIPTTCTYSR (UniProt Q9NW82)”, the “probe-labelled cysteine peptide fold change” value was 0.603 (10 µM) and -0.0979 (50 µM).

In the case of “XIAP_P98170_227_HFPNCFFVLGR (UniProt P98170)”, the “probe-labelled cysteine peptide fold change” value runs as follows: (10 µM) 0.136; (50 µM) -0.0172.

“WNK1_Q9H4A3_1135_VVECQLETHNR (UniProt Q9H4A3)”: the “probe-labelled cysteine peptide fold change” value by setting is: (10 µM) 0.0732; (50 µM) 0.0576.

Regarding “WEE1_P30291_323_RLDGCIYAIK (UniProt P30291)”, the “probe-labelled cysteine peptide fold change” value runs as follows: (10 µM) -0.103; (50 µM) 0.165.

For the target “WDR91_A4D1P6_704_VLESCLSLGGHR (UniProt A4D1P6)”, the “probe-labelled cysteine peptide fold change” value (10 µM) was determined as 0.207 and the “probe-labelled cysteine peptide fold change” value (50 µM) was 0.18.

With “XPC_Q01831_224_NNICSQPDLHAIGLSIIPAR (UniProt Q01831)”, the “probe-labelled cysteine peptide fold change” value runs as follows: (10 µM) -0.112; (50 µM) 0.0383.

Consider “XPC_Q01831_558_WVCVDCVHGVVGQPLTCYK (UniProt Q01831)”, for which the “probe-labelled cysteine peptide fold change” value is, setting by setting: (10 µM) 0.0771; (50 µM) 0.173.

As for “WDR26_Q9H7D7_338_LDNNLDSVSLLIDHVCSR (UniProt Q9H7D7)”, the “probe-labelled cysteine peptide fold change” value by setting is: (10 µM) 0.0508; (50 µM) 0.0526.

As to “WDR24_Q96S15_189_VCFHPTEAHVLLSGSQDGFMK (UniProt Q96S15)”, the “probe-labelled cysteine peptide fold change” value reads like this: (10 µM) 0.316; (50 µM) 0.359.

Turning to “WASHC5_Q12768_369_DCNVAIR (UniProt Q12768)”, the “probe-labelled cysteine peptide fold change” value was -0.0902 (10 µM) and -0.01 (50 µM).

Turning to “WDR77_Q9BQA1_53_CWAGSLWLFK (UniProt Q9BQA1)”, the “probe-labelled cysteine peptide fold change” value runs as follows: (10 µM) -0.0575; (50 µM) 0.00228.

For the target “WDR59_Q6PJI9_163_NANCLATSHDGDVR (UniProt Q6PJI9)”, the “probe-labelled cysteine peptide fold change” value runs as follows: (10 µM) -0.0344; (50 µM) 0.132.

On to “WRN_Q14191_1070_ANTESQSLILQANEELCPK (UniProt Q14191)”, for which the “probe-labelled cysteine peptide fold change” value runs as follows: (10 µM) -0.188; (50 µM) -0.54.

With “WDR7_Q9Y4E6_69_ALLFGHTASITCLSK (UniProt Q9Y4E6)”, the “probe-labelled cysteine peptide fold change” value reads like this: (10 µM) -0.00135; (50 µM) 0.0467.

As for “WDHD1_O75717_285_GYAICGLAWHPTCGR (UniProt O75717)”, the “probe-labelled cysteine peptide fold change” value by setting is: (10 µM) -0.0417; (50 µM) -0.0589.

For the target “WIPI2_Q9Y4P8_334_NICSLATIQK (UniProt Q9Y4P8)”, the “probe-labelled cysteine peptide fold change” value (10 µM) is -0.051 and the “probe-labelled cysteine peptide fold change” value (50 µM) was -0.275.

In the case of “WDR1_O75083_507_GPVTDVAYSHDGAFLAVCDASK (UniProt O75083)”, the “probe-labelled cysteine peptide fold change” value was found to be 0.0722 (10 µM) and 0.166 (50 µM).

In the case of “WDR36_Q8NI36_470_LSCSTWNYQK (UniProt Q8NI36)”, the “probe-labelled cysteine peptide fold change” value by setting is: (10 µM) -0.223; (50 µM) -0.0146.

Take “WDFY3_Q8IZQ1_16_QEECSPQDNALGLMHLR (UniProt Q8IZQ1)”: the “probe-labelled cysteine peptide fold change” value (10 µM) is -0.209 and the “probe-labelled cysteine peptide fold change” value (50 µM) was -0.373.
